In PMC10777497:
Results are given in words; binding and its absence hold for the method and conditions named. In cells and extracts the contact can be indirect. Some entries that bind do so weakly or less than the wild type. Tags and fused reporters may be left off the sequences shown.

Amino acid sequences for entries named in this document (tags omitted). A change or cut given only in a name is not applied to a line headed by its entry. Residues count along the entry.
UniProt P06761: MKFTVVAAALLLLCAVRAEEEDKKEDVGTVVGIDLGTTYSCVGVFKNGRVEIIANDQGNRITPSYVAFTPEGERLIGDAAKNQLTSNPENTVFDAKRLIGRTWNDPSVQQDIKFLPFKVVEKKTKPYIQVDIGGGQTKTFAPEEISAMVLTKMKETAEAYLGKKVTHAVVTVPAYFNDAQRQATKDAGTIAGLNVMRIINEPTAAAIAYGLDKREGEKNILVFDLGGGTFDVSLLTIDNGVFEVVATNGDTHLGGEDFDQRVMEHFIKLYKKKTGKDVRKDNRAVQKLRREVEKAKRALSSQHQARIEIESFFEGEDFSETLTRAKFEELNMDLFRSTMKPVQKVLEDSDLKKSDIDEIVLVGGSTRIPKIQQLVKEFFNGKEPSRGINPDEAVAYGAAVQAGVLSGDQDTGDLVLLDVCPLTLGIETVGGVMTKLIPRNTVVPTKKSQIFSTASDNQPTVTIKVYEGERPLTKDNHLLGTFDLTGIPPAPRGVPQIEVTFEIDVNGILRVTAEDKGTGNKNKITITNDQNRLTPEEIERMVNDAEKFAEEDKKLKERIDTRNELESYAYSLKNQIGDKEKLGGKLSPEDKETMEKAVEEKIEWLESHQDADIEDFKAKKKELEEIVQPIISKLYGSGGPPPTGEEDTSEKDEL
GST-GRP78-FL: residues 28-654 of P06761
GST-GRP78-NBD: residues 28-405 of P06761
GST-GRP78-SBD: residues 422-654 of P06761

Key:
Experiment in all cases: pull-down; GST pull-down: GST-GRP78 proteins purified on glutathione Sepharose 4B beads, rotated with Flag-VEGF-B from lysed transfected 293T cells at 4 °C for 4 h, three washes, western blot; only the target purified
[1] = molecular target: GST-GRP78-SBD (rat) (UniProt P06761)
[2] = molecular target: GST-GRP78-FL (rat) (UniProt P06761)
[3] = molecular target: GST-GRP78-NBD (rat) (UniProt P06761)

binding [1]: binds | binding [2]: binds | binding [3]: binds
B1: Flag-VEGF-B (protein, UniProt O35485 22-207)
chain: PVSQFDGPSHQKKVVSWIDVYARATCQPREVVVPLSMELMGNVVKQLVPSCVTVQRCGGCCPDDGLECVPIGQHQVRMQILMIQYPSSQLGEMSLEEHSQCECRPKRKESAVKPDRVAIPHHRPQPRSVLSWDSAPGASSPADIIHPTPAPGPSAHAAPSAVSALIPGPAVAAADAAASSIAKGGA
